Survivor count and T/C data for 17 compounds are collected here from PubChem BioAssay AID220 (DTP/NCI, 2004).

The list does not hold the whole screen: it is rich in T/C values a quarter to a half above the control, in often repeated tests (any T/C) and in doses without a T/C. Other doses and runs of a compound stand elsewhere. T/C is the treated group as % of the vehicle group. Schedule codes are those of the source, read here as Q, the interval in days (D) or hours (H), X, the number of doses. Some T/C values carry the count of animals alive at the toxicity check (mostly the fifth day); without a count, all were alive then. Some doses have a count of surviving animals in place of a T/C: the source holds a T/C of zero for them, seemingly a mark for toxic or unscored doses. Survivors were counted at the toxicity check, usually on the fifth day, unless a day is given; later deaths do not show. Some entries hold several experiments; the results are listed from low to high.

In the test the test system is CD8F1 mice, subcutaneous mammary adenocarcinoma, T/C%. Kind of test: NCI In Vivo Anticancer Drug Screen. Data for tumor model Mammary Adenocarcinoma CD8F1 (subcutaneous) in CD8F1. The note with it: higher T/C = larger tumour. In a few lines:
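Transplantable tumors were established in mice, animals were dosed with compound or vehicle, and survival or tumor size was then measured in both groups. The treated result was divided by the control result.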

Setting [1] is: T/C endpoint: median tumor weight (est.), dose: 50.0 mg/kg/injection, schedule: Q07DX005 (ip), vehicle: saline, evaluated on day 30.
Setting [2] is: T/C endpoint: median tumor weight change, dose: 125.0 mg/kg/injection, schedule: Q01DX001 (ip), vehicle: saline.
[3] abbreviates: T/C endpoint: median tumor weight change, dose: 250.0 mg/kg/injection, schedule: Q01DX001 (ip), vehicle: saline.

As to `CNC(=O)n1c(N)nc(-c2ccccc2)c1-c1ccccc1`, the survivor count is listed as 1 of 10 on day 38 (T/C endpoint: median tumor weight change, dose: 250.0 mg/kg/injection, schedule: Q01DX001 (ip), vehicle: saline with Tween-80) and 0 of 10 on day 38 (T/C endpoint: median tumor weight change, dose: 500.0 mg/kg/injection, schedule: Q01DX001 (ip), vehicle: saline with Tween-80).
For `Cc1ccc2nc(-c3ccc4nc(-c5ccc(N=Nc6ccc(-c7nc8ccc(-c9nc%10ccc(C)c(S(=O)(=O)O)c%10s9)cc8s7)cc6)cc5)sc4c3)sc2c1S(=O)(=O)O`, the survivor count runs as follows: (T/C endpoint: median tumor weight change, dose: 500.0 mg/kg/injection, schedule: Q01DX001 (ip), vehicle: suspension in saline) 6 of 10 on day 36; (T/C endpoint: median tumor weight change, dose: 1000.0 mg/kg/injection, schedule: Q01DX001 (ip), vehicle: suspension in saline) 0 of 10 on day 36; (T/C endpoint: median tumor weight change, dose: 2000.0 mg/kg/injection, schedule: Q01DX001 (ip), vehicle: suspension in saline) 3 of 10 on day 36.
In the case of `S=C=NCCc1ccccc1`, the T/C is 131 % of control (T/C endpoint: median tumor weight (est.), dose: 6.25 mg/kg/injection, schedule: Q07DX005 (ip), vehicle: saline with Tween-80, evaluated on day 32) and 127 % of control (T/C endpoint: median tumor weight (est.), dose: 12.5 mg/kg/injection, schedule: Q07DX005 (ip), vehicle: saline with Tween-80, evaluated on day 32).
`COc1ccc2c(c1)CCn1c(C)c(COC(=O)NC(C)C)c(COC(=O)NC(C)C)c1-2`: the survivor count (T/C endpoint: median tumor weight change, dose: 125.0 mg/kg/injection, schedule: Q01DX001 (ip), vehicle: distilled water + Tween-80) is on record as 5 of 10 on day 30; the survivor count (T/C endpoint: median tumor weight change, dose: 250.0 mg/kg/injection, schedule: Q01DX001 (ip), vehicle: distilled water + Tween-80) was 0 of 10 on day 30 and 5 of 10 on day 26.
Consider `CCCCC(=O)OCC(=O)[C@]1(O)Cc2c(O)c3c(c(O)c2[C@@H](OC2CC(NC(=O)C(F)(F)F)C(O)C(C)O2)C1)C(=O)c1c(OC)cccc1C3=O` (some centres not stated), for which the survivor count reads like this: (T/C endpoint: median tumor weight change, dose: 450.0 mg/kg/injection, schedule: Q01DX001 (ip), vehicle: clinical formulation) 4 of 10 on day 28 and 5 of 10 on day 29; (T/C endpoint: median tumor weight change, dose: 600.0 mg/kg/injection, schedule: Q01DX001 (ip), vehicle: clinical formulation) 2 of 10 on day 29.
As for `CCSC(=O)N1c2ccc(OC)cc2C=CC1C#N` (configuration not stated), the T/C (T/C endpoint: median tumor weight (est.), dose: 200.0 mg/kg/injection, schedule: Q07DX005 (ip), vehicle: saline with Tween-80, evaluated on day 30) is 129 % of control [9 of 10 alive]. Further, the survivor count (T/C endpoint: median tumor weight (est.), dose: 1800.0 mg/kg/injection, schedule: Q07DX005 (ip), vehicle: saline with Tween-80) is given as 4 of 10 on day 30 and the survivor count (T/C endpoint: median tumor weight (est.), dose: 3600.0 mg/kg/injection, schedule: Q07DX005 (ip), vehicle: saline with Tween-80) is 2 of 10 on day 30.
Take `CC(/C=N/N=C(N)N)=N\N=C(N)N`: the T/C under setting [1] is 133 % of control.
In the case of `CC(C)(Oc1ccc(-c2cccc3ccccc23)cc1)C(=O)O`, the survivor count (T/C endpoint: median tumor weight (est.), dose: 800.0 mg/kg/injection, schedule: Q07DX005 (ip), vehicle: Klucel (hydroxypropylcellulose) (HPC)) is on record as 3 of 10 on day 30.
For the compound `O=C(Nc1ccccc1)c1c(O)[nH]c(=S)[nH]c1=O`, the survivor count (T/C endpoint: median tumor weight change, dose: 225.0 mg/kg/injection, schedule: Q01DX001 (ip), vehicle: saline with Tween-80) is reported as 2 of 10 on day 28; the survivor count (T/C endpoint: median tumor weight change, dose: 450.0 mg/kg/injection, schedule: Q01DX001 (ip), vehicle: saline with Tween-80) is on record as 0 of 10 on day 28; the survivor count (T/C endpoint: median tumor weight change, dose: 900.0 mg/kg/injection, schedule: Q01DX001 (ip), vehicle: saline with Tween-80) is listed as 0 of 10 on day 28.
`COc1cc(NCCCCCCCNC(C)C)c2nccc(C)c2c1`: the T/C (T/C endpoint: median tumor weight change, dose: 15.62 mg/kg/injection, schedule: Q01DX001 (ip), vehicle: saline, evaluated on day 31) is 130 % of control. Also, the survivor count runs as follows: under setting [2], 1 of 10 on day 31; under setting [3], 0 of 10 on day 31.
Turning to `O=C(C1CO1)C(Cl)(Cl)Cl` (configuration not stated), the survivor count was 4 of 10 on day 31 (T/C endpoint: median tumor weight change, dose: 31.0 mg/kg/injection, schedule: Q01DX001 (ip), vehicle: saline); 3 of 10 on day 29 and 4 of 10 on day 31 (T/C endpoint: median tumor weight change, dose: 62.0 mg/kg/injection, schedule: Q01DX001 (ip), vehicle: saline); 1 of 10 on day 29 under setting [2]; 0 of 10 on day 29 and 0 of 10 on day 32 under setting [3]; 0 of 10 on day 29 and 0 of 10 on day 32 (T/C endpoint: median tumor weight change, dose: 500.0 mg/kg/injection, schedule: Q01DX001 (ip), vehicle: saline); 0 of 10 on day 29 and 0 of 10 on day 32 (T/C endpoint: median tumor weight change, dose: 1000.0 mg/kg/injection, schedule: Q01DX001 (ip), vehicle: saline). For the same compound, the T/C (T/C endpoint: median tumor weight change, dose: 62.5 mg/kg/injection, schedule: Q01DX001 (ip), vehicle: saline, evaluated on day 32) was 131 % of control.
As for `O=[N+]([O-])O.[Ga]`, the T/C by setting is: (T/C endpoint: mean tumor weight, dose: 100.0 mg/kg/injection, schedule: Q01DX009 (ip), vehicle: saline, evaluated on day 59) 149 % of control [9 of 10 alive]; (T/C endpoint: median tumor weight (est.), dose: 25.0 mg/kg/injection, schedule: Q04DX005 (ip), vehicle: saline, evaluated on day 30) 135 % of control; (T/C endpoint: median tumor weight (est.), dose: 25.0 mg/kg/injection, schedule: Q07DX005 (ip), vehicle: saline, evaluated on day 30) 143 % of control; (T/C endpoint: median tumor weight (est.), dose: 100.0 mg/kg/injection, schedule: Q04DX005 (ip), vehicle: saline, evaluated on day 30) 147 % of control [8 of 10 alive]; (T/C endpoint: median tumor weight (est.), dose: 100.0 mg/kg/injection, schedule: Q07DX004 (ip), vehicle: saline, evaluated on day 30) 144 % of control. For the same compound, the survivor count runs as follows: (T/C endpoint: mean tumor weight, dose: 200.0 mg/kg/injection, schedule: Q07DX005 (ip), vehicle: saline) 5 of 10; (T/C endpoint: mean tumor weight, dose: 250.0 mg/kg/injection, schedule: Q07DX005 (ip), vehicle: saline) 4 of 10; (T/C endpoint: mean tumor weight, dose: 300.0 mg/kg/injection, schedule: Q07DX005 (ip), vehicle: saline) 1 of 10; (T/C endpoint: median tumor weight (est.), dose: 200.0 mg/kg/injection, schedule: Q07DX005 (ip), vehicle: saline) 1 of 10.
In the case of `Cc1ccc(N)c(N)c1`, the survivor count is, setting by setting: (T/C endpoint: median tumor weight change, dose: 1000.0 mg/kg/injection, schedule: Q01DX001 (ip), vehicle: saline with Tween-80) 4 of 10 on day 39; (T/C endpoint: median tumor weight change, dose: 2000.0 mg/kg/injection, schedule: Q01DX001 (ip), vehicle: saline with Tween-80) 0 of 10 on day 39.
In the case of `CC(=O)OC1=NC(C)c2c1cc(OC(C)=O)[nH]c2=O` (configuration not stated), the survivor count runs as follows: (T/C endpoint: median tumor weight (est.), dose: 100.0 mg/kg/injection, schedule: Q07DX005 (ip), vehicle: Klucel (hydroxypropylcellulose) (HPC)) 6 of 10 on day 30; (T/C endpoint: median tumor weight (est.), dose: 200.0 mg/kg/injection, schedule: Q07DX005 (ip), vehicle: Klucel (hydroxypropylcellulose) (HPC)) 1 of 10 on day 30; (T/C endpoint: median tumor weight (est.), dose: 400.0 mg/kg/injection, schedule: Q07DX005 (ip), vehicle: Klucel (hydroxypropylcellulose) (HPC)) 0 of 10 on day 30.
`CC(=O)[C@]1(O)Cc2c(O)c3c(c(O)c2[C@@H](OC2CC(N)C(O)C(C)O2)C1)C(=O)c1c(O)cccc1C3=O` (some centres not stated): the T/C is, setting by setting: (T/C endpoint: median tumor weight (est.), dose: 0.13 mg/kg/injection, schedule: Q07DX005 (ip), vehicle: water, evaluated on day 30) 126 % of control; (T/C endpoint: median tumor weight (est.), dose: 0.22 mg/kg/injection, schedule: Q07DX005 (ip), vehicle: water, evaluated on day 30) 147 % of control; (T/C endpoint: median tumor weight (est.), dose: 0.36 mg/kg/injection, schedule: Q07DX005 (ip), vehicle: water, evaluated on day 30) 138 % of control.
`COC(=O)C(N)Cc1ccc(O)c(O)c1` (configuration not stated): the T/C by setting is: under setting [1], 132 % of control; (T/C endpoint: median tumor weight (est.), dose: 200.0 mg/kg/injection, schedule: Q07DX005 (ip), vehicle: saline, evaluated on day 30) 133 % of control. Besides, for the setting “T/C endpoint: median tumor weight (est.), dose: 1600.0 mg/kg/injection, schedule: Q07DX005 (ip), vehicle: saline”, the survivor count was 5 of 10 on day 30.
On to `COc1cccc2c1C(=O)c1c(O)c3c(c(O)c1C2=O)C[C@@](O)(C(=O)CO)C[C@@H]3OC1CC(N)CC(C)O1` (some centres not stated), for which the survivor count is, setting by setting: (T/C endpoint: median tumor weight change, dose: 7.5 mg/kg/injection, schedule: Q01DX001 (ip), vehicle: water) 1 of 10 on day 28; (T/C endpoint: median tumor weight change, dose: 15.0 mg/kg/injection, schedule: Q01DX001 (ip), vehicle: water) 0 of 10 on day 28; (T/C endpoint: median tumor weight change, dose: 30.0 mg/kg/injection, schedule: Q01DX001 (ip), vehicle: water) 0 of 10 on day 28.
